PubChem BioAssay AID1259293, Sanger Institute | 2017
Aim: 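Which silenced kinases act in synergy with BYL719, cetuximab or trametinib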 (follow-up of hits). System: human NCI-H716 colorectal cancer cells. Reagent: single siRNA against human genes. Challenge: anchor drugs BYL719 at 1 µM, cetuximab at 5 µg/ml or trametinib at 10 nM, or DMSO vehicle alone. Measured: 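For every anchor drug, viability versus control pool 2 (non-targeting) and a synergy score of drug with siRNA, each a replicate average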. Direction: synergy score with BYL719 and synergy score with cetuximab and synergy score with trametinib: higher = stronger synthetic lethal effect with drug. Rule for the call: 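An siRNA is active if its synergy score is above 0.10 for one or more of the three anchor drugs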. Meaning of the calls: active = synergy with at least one drug; inactive = no synergy with any drug.
Shown is a random part of 160 reagents tested. In the full data, 46 (29%) were called active. 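The method behind the synergy score is not described; each call refers to one siRNA in a single cell line.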 Reagents against one gene are numbered here. Further read-outs or replicates are left out here. Not given: the amount of reagent, the time to read-out.

BMPR2 (bone morphogenetic protein receptor type 2) #1 gave synergy score with BYL719 = -0.166; synergy score with cetuximab -0.0408; synergy score with trametinib -0.0745; inactive.
After knock-down of BMPR2 (bone morphogenetic protein receptor type 2) #2, the record shows synergy score with BYL719 = 0.0625; synergy score with cetuximab -0.109; synergy score with trametinib 0.121; active.
For BMPR2 (bone morphogenetic protein receptor type 2) #3, the values are synergy score with BYL719 = -0.409; synergy score with cetuximab -0.227; synergy score with trametinib -0.0672; inactive.
BMPR2 (bone morphogenetic protein receptor type 2) #4 gave synergy score with BYL719 = -0.145; synergy score with cetuximab -0.138; synergy score with trametinib -0.134; inactive.
After knock-down of IKBKB (inhibitor of nuclear factor kappa B kinase subunit beta) #1, the record shows synergy score with BYL719 = -0.179; synergy score with cetuximab -0.0952; synergy score with trametinib -0.303; inactive.
With knock-down of IKBKB (inhibitor of nuclear factor kappa B kinase subunit beta) #2 the results were synergy score with BYL719 = 0.139; synergy score with cetuximab -0.106; synergy score with trametinib -0.00929; active.
With knock-down of IKBKB (inhibitor of nuclear factor kappa B kinase subunit beta) #3, the record shows synergy score with BYL719 = -0.0669; synergy score with cetuximab -0.344; synergy score with trametinib -0.0298; inactive.
Against IKBKB (inhibitor of nuclear factor kappa B kinase subunit beta) #4 the deposit lists synergy score with BYL719 = 0.0662; synergy score with cetuximab -0.0831; synergy score with trametinib 0.102; active.

Only “synergy score with BYL719”, for 2 of the entries above:
IKBKB (inhibitor of nuclear factor kappa B kinase subunit beta) #1 = -0.179
IKBKB (inhibitor of nuclear factor kappa B kinase subunit beta) #2 = 0.139

The listing continues.
Depletion of SYK (spleen associated tyrosine kinase) #1 resulted in: synergy score with BYL719 = 0.00768; synergy score with cetuximab 0.0897; synergy score with trametinib 0.0776; inactive.
After knock-down of SYK (spleen associated tyrosine kinase) #2 the results were synergy score with BYL719 = -0.179; synergy score with cetuximab 0.0136; synergy score with trametinib 0.0124; inactive.
Depletion of SYK (spleen associated tyrosine kinase) #3 gave: synergy score with BYL719 = 0.0275; synergy score with cetuximab -0.111; synergy score with trametinib 0.0219; inactive.
With knock-down of SYK (spleen associated tyrosine kinase) #4, the record shows synergy score with BYL719 = -0.516; synergy score with cetuximab -0.182; synergy score with trametinib -0.149; inactive.
